Experimental data as given in publication PMC9998502 (Frontiers in Pharmacology, 2023).

Assay: peptide made by a vendor
Details: whole synthesis, analytical RP-HPLC

Row | Substance | final HPLC purity [%]
1 | PEPTIDE1{Y.P.[Rb3Nal].F.[am]}$$$$V2.0 | 96
2 | PEPTIDE1{Y.P.[Rb2Nal].F.[am]}$$$$V2.0 | 97
3 | PEPTIDE1{Y.[D-Pip].F.F.[am]}$$$$V2.0 | 97
4 | H-[Dmt][d(β3hA)]FF-NH2 (N-terminus assumed; SMILES Cc1cc(O)cc(C)c1C[C@H](N)C(=O)N[C@H](C)CC(=O)N[C@@H](Cc1ccccc1)C(=O)N[C@@H](Cc1ccccc1)C(N)=O) | 96
5 | PEPTIDE1{[Dmt].[RNip].F.F.[am]}$$$$V2.0 | 98
6 | H-Y[d(β3hA)]FF-NH2 (N-terminus assumed; SMILES C[C@H](CC(=O)N[C@@H](Cc1ccccc1)C(=O)N[C@@H](Cc1ccccc1)C(N)=O)NC(=O)[C@@H](N)Cc1ccc(O)cc1) | 97
7 | PEPTIDE1{[Dmt].[Rb2Ala].F.F.[am]}$$$$V2.0 | 97
8 | PEPTIDE1{[Dmt].P.[Rb2Nal].F.[am]}$$$$V2.0 | 96
9 | PEPTIDE1{[Dmt].P.F.F.[am]}$$$$V2.0 | 97
10 | PEPTIDE1{[Dmt].[D-Pip].F.F.[am]}$$$$V2.0 | 96
11 | PEPTIDE1{Y.[RNip].F.F.[am]}$$$$V2.0 | 98
12 | PEPTIDE1{Y.[Rb2Ala].F.F.[am]}$$$$V2.0 | 96
13 | PEPTIDE1{[Dmt].P.[Rb3Nal].F.[am]}$$$$V2.0 | 98

HELM strings list residues between dots; [ac] is acetyl, [am] amide, other brackets name non-standard units. Non-standard residues stand in square brackets, D forms with d. Dmt = Cc1cc(O)cc(C)c1C[C@H](N)C(=O)O; d(β3hA) = C[C@@H](N)CC(=O)O
